Results deposited as PubChem BioAssay AID1259327 (Drosophila RNAi Screening Center, 2017)

Assay: 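Knock-downs altering cellular ATP with no metal added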
Cell system: Drosophila S2R+ cells
Reagent: long dsRNA against Drosophila genes
Duration: 5 days (water added on day 4, read one day later)
Challenge: water added as vehicle, no metal, one day before read-out
Measured: 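Luciferase ATP signal per well, normalised to plate mean, duplicate average converted to z-score across plates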
Scale: ATP z-score: higher = more total ATP than typical wells; ATP luminescence: higher = more total ATP
Rule for the call: 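Called active when the ATP z-score exceeds 1.5 or falls below -1.5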
Meaning of the calls: active = hit: ATP up or down; inactive = no clear ATP change
This is one part, drawn at random, of about 3,100 deposited reagents. 378 of them (12%) count as active. 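Hits include both directions; z-score sign shows ATP rise or fall; raw luminescence values are not plate-normalised.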 Unmarked entries are inactive. The numbers tell different reagents against one gene apart. Not given: the amount of reagent.

no.	gene	reagent no.	ATP z-score, duplicate mean	ATP luminescence, replicate 1 (RLU)	ATP luminescence, replicate 2 (RLU)
1	CG10761	1	1.55 (active)	6.54e5	6.68e5
2	CG10761	2	1.1	1.04e6	9.60e5
3	Ir75b (Ionotropic receptor 75b)	1	0.707	1.04e6	9.38e5
4	CG31663	1	-1.64 (active)	2.67e5	8.83e5
5	CG31663	2	-0.368	4.67e5	4.38e5
6	CG31663	3	-0.779	6.84e5	6.04e5
7	CG31663	4	-1.52 (active)	5.52e5	5.46e5
8	CG31121	1	0.631	7.75e5	8.49e5
9	CG31121	2	-1.1	2.37e5	6.75e5
10	Desat2 (Desaturase 2)	1	-0.0123	8.44e5	8.54e5
11	Desat2 (Desaturase 2)	2	0.737	4.61e5	5.40e5
12	CG11537	1	0.181	7.23e5	7.78e5
13	CG11537	2	-0.341	4.15e5	4.70e5
14	CG34011	1	0.552	8.27e5	7.76e5
15	CG34011	2	0.888	5.23e5	5.28e5
16	CG8654	1	0.981	8.51e5	8.20e5
17	Or85b (Odorant receptor 85b)	1	0.519	3.04e5	8.64e5
18	Or85b (Odorant receptor 85b)	2	-0.122	4.61e5	4.52e5
19	CG3638	1	-0.562	4.96e5	6.40e5
20	CG3638	2	0.348	9.12e5	8.21e5
21	MsR2 (Myosuppressin receptor 2)	1	0.41	6.33e5	6.80e5
22	MsR2 (Myosuppressin receptor 2)	2	-0.4	8.31e5	7.70e5
23	MsR2 (Myosuppressin receptor 2)	3	-0.366	8.72e5	9.39e5
24	Or65a (Odorant receptor 65a)	1	1	7.63e5	9.45e5
25	Or65a (Odorant receptor 65a)	2	-1.95 (active)	3.42e5	3.23e5
26	nAChRalpha2 (nicotinic Acetylcholine Receptor alpha2)	1	0.00163	7.26e5	6.86e5
27	nAChRalpha2 (nicotinic Acetylcholine Receptor alpha2)	2	-0.343	8.17e5	7.99e5
28	CG11655	1	-1.62 (active)	5.07e5	6.98e5
29	CG8908	1	-0.997	5.86e5	4.72e5
30	CG8908	2	0.633	5.28e5	4.88e5
31	CG5262	1	0.652	8.48e5	7.52e5
32	CG5262	2	-0.729	4.16e5	3.94e5
33	Mgat2	1	-0.207	7.02e5	6.67e5
34	Mgat2	2	1.77 (active)	1.13e6	9.52e5
35	path (pathetic)	1	0.173	1.03e6	8.13e5
36	path (pathetic)	2	2.15 (active)	6.02e5	6.59e5
37	CG1907	1	0.418	7.33e5	7.64e5
38	G6P (Glucose-6-Phosphatase)	1	-0.276	6.50e5	7.04e5
39	G6P (Glucose-6-Phosphatase)	2	0.626	1.05e6	1.19e6
40	Tsp42Er (Tetraspanin 42Er)	1	-0.333	5.30e5	6.49e5
41	CG9663	1	-0.928	3.70e5	4.61e5
42	nAChRalpha7 (nicotinic Acetylcholine Receptor alpha7)	1	-0.769	5.98e5	7.25e5
43	nAChRalpha7 (nicotinic Acetylcholine Receptor alpha7)	2	-0.653	6.72e5	6.70e5
44	CG6660	1	0.755	8.04e5	7.63e5
45	bbc (bb in a boxcar)	1	0.496	7.68e5	1.06e6
46	CG1801	1	0.164	7.35e5	7.88e5
47	boss (bride of sevenless)	1	-0.872	2.51e5	6.91e5
48	boss (bride of sevenless)	2	-1.34	6.57e5	7.10e5
49	CG9270	1	-0.306	6.87e5	7.10e5
50	CG13784	1	-1.04	6.29e5	6.29e5
51	AdoR (Adenosine receptor)	1	4.43 (active)	8.84e5	7.72e5
52	AdoR (Adenosine receptor)	2	0.998	9.98e5	1.11e6
53	kumpel (kin of rumpel)	1	0.833	3.06e5	9.29e5
54	kumpel (kin of rumpel)	2	0.485	3.03e5	8.61e5
55	kumpel (kin of rumpel)	3	-0.353	2.89e5	7.10e5
56	kumpel (kin of rumpel)	4	0.291	3.22e5	7.69e5
57	kumpel (kin of rumpel)	5	0.684	3.45e5	7.99e5
58	kumpel (kin of rumpel)	6	-0.275	2.64e5	7.89e5
59	kumpel (kin of rumpel)	7	-0.424	7.93e5	8.03e5
60	kumpel (kin of rumpel)	8	-1.26	8.84e5	8.70e5
61	kumpel (kin of rumpel)	9	-0.829	4.35e5	3.63e5
62	kumpel (kin of rumpel)	10	-2.42 (active)	4.14e5	3.36e5
63	CG31741	1	-0.153	7.46e5	6.74e5
64	MFS10 (Major Facilitator Superfamily Transporter 10)	1	-1.22	5.31e5	6.28e5
65	MFS10 (Major Facilitator Superfamily Transporter 10)	2	0.228	1.06e6	1.09e6
66	Sdc (Syndecan)	1	-1.16	6.38e5	5.68e5
67	VhaM9.7-c (Vacuolar H[+] ATPase M9.7 subunit c)	1	-2.07 (active)	4.95e5	5.25e5
68	VhaM9.7-c (Vacuolar H[+] ATPase M9.7 subunit c)	2	-0.617	5.43e5	5.11e5
